PubChem BioAssay AID504744, Drosophila RNAi Screening Center, 2011
The deposit covers about 23,000 reagents; shown is an unselected part of those that have a named target and a result. In the full data, 98 (0.43%) were called active. 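Only hit calls are given; the phospho-dAkt signals, z-scores and hit direction were not deposited.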 Names joined by + are all predicted targets of the reagent. No sequences are given here.

Test: 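Find genes whose loss alters insulin-driven dAkt phosphorylation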 (primary screen)
System: Drosophila Kc167 cells
Reagents: long dsRNA against Drosophila genes, 250 ng dsRNA per well of a 384-well plate
Time to read-out: 3 days of knock-down, then overnight serum-free starvation before stimulation
Conditions: bovine insulin at 387 nM for 10 minutes after 12 h without serum
Measured: 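In-cell antibody fluorescence for phospho-dAkt in each well over DNA-dye signal, with log2 residuals expressed as z-scores adjusted for cell count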
Active means: 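Hit in the insulin screen when the two-replicate mean z-score is more extreme than plus or minus 2.5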

target gene | DRSC id | call
Nle | DRSC00763 | inactive
trr | DRSC18845 | inactive
CG33770 | DRSC11717 | inactive
Tsp2A | DRSC18584 | inactive
CG13202 | DRSC06326 | inactive
CG18258 | DRSC19798 | inactive
CG5171 | DRSC02823 | inactive
CG17068 | DRSC20545 | inactive
CG31957 | DRSC00207 | inactive
CG5618 | DRSC11780 | inactive
Obp19a | DRSC20487 | inactive
Eh | DRSC16660 | inactive
CG8910 | DRSC07414 | inactive
nonA | DRSC20357 | inactive
Tmlh | DRSC15563 | inactive
Arglu1 | DRSC02909 | inactive
CG3527 | DRSC18307 | inactive
CG8236 | DRSC16399 | inactive
CG15023 | DRSC08477 | inactive
cta | DRSC03769 | inactive
CG14219 | DRSC19576 | inactive
CG11251 | DRSC09825 | inactive
CG1288 | DRSC12538 | inactive
CG34320 (retired record) | DRSC17682 | inactive
bard | DRSC14796 | inactive
CG8117 | DRSC20082 | inactive
Pdcd4 | DRSC19360 | inactive
Ccp84Af | DRSC12591 | inactive
Sse | DRSC09746 | inactive
danr | DRSC14651 | inactive
CG9192 | DRSC08639 | inactive
Vti1a | DRSC08563 | inactive
Sf3b2 | DRSC00619 | inactive
CG14110 | DRSC10113 | inactive
CG3598 | DRSC18471 | inactive
T48 | DRSC16878 | inactive
CG31342 | DRSC15349 | inactive
CG31342 | DRSC16246 | inactive
TFAM | DRSC15552 | inactive
CG34135 + Nasp | DRSC16397 | inactive
Wdr37 | DRSC14500 | inactive
zormin | DRSC07969 | inactive
zormin | DRSC08210 | inactive
zormin | DRSC08212 | inactive
zormin | DRSC08213 | inactive
zormin | DRSC08297 | inactive
zormin | DRSC08571 | inactive
zormin | DRSC22483 | inactive
CG31807 | DRSC01550 | inactive
snz | DRSC17969 | inactive
CheB93a | DRSC15044 | inactive
CG3630 | DRSC18499 | inactive
Cks30A | DRSC03292 | inactive
Nxf3 | DRSC21749 | inactive
NC2alpha | DRSC04059 | inactive
Jheh3 | DRSC06533 | inactive
CG3610 | DRSC15502 | inactive
CG14177 (retired record) | DRSC10176 | inactive
CG15025 | DRSC15031 | inactive
CG15098 | DRSC06527 | inactive
ChT | DRSC16296 | inactive
plx | DRSC12260 | inactive
plx | DRSC12385 | inactive
plx | DRSC22683 | inactive
obst-F | DRSC10805 | inactive
CG15517 | DRSC15056 | inactive
CG10405 | DRSC14238 | inactive
Or98P | DRSC22948 | inactive

Look-ups from the list.
CG5171 [DRSC02823], call = inactive
For “call”, Or98P [DRSC22948] has inactive
Result of CG8117 [DRSC20082] under “call”: inactive
Result for CG31342 [DRSC16246] under “call”: inactive
For “call”, CG3610 [DRSC15502] reads inactive
CG31807 [DRSC01550], call = inactive

Additional results follow.
target gene | DRSC id | call
CG18343 | DRSC06726 | inactive
CG42306 + Gint3 | DRSC06934 | inactive
CG30480 | DRSC06736 | inactive
SmydA-7 | DRSC07340 | inactive
fd19B | DRSC20688 | inactive
CG7668 | DRSC10901 | inactive
Tbcc | DRSC00223 | inactive
Gr98d | DRSC14571 | inactive
RpL12 | DRSC04344 | inactive
CG14260 | DRSC14755 | inactive
Nopp140 | DRSC11872 | inactive
CG9458 | DRSC16495 | inactive
svr | DRSC17293 | inactive
svr | DRSC18841 | inactive
rho-4 | DRSC19761 | inactive
rho-4 | DRSC19762 | inactive
Ptp69D | DRSC11258 | inactive
snsl | DRSC00543 | inactive
Ir94a | DRSC13538 | inactive
CG1986 | DRSC18197 | inactive
TwdlO | DRSC16043 | inactive
CG16710 | DRSC15136 | inactive
CG6785 | DRSC02993 | inactive
CG30046 | DRSC06691 | inactive
Xrp1 | DRSC15282 | inactive
Xrp1 | DRSC15283 | inactive
CG3699 | DRSC18171 | inactive
CG3699 | DRSC18642 | inactive
CG11019 (retired record) | DRSC02117 | inactive
CG8777 | DRSC07263 | inactive
TSG101 | DRSC11098 | inactive
Obsc | DRSC04301 | inactive
Obsc | DRSC04302 | inactive
Obsc | DRSC04303 | inactive
Obsc | DRSC04430 | active
Obsc | DRSC22422 | inactive
Grl62a | DRSC07963 | inactive
Indy-2 + CG33934 | DRSC15685 | inactive
Indy-2 + CG33934 | DRSC15686 | inactive
